PubChem BioAssay AID1259254, NCATS – 2017

- Test: 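Genome-wide screen for genes that prevent DNA re-replication in cancer cells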 (primary screen)
- System: human HCT116 colorectal cancer cells
- Reagents: single siRNA against human genes
- Timing: 3 days
- Detection: 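Imaged Hoechst DNA stain sorts each cell into a cycle phase by DNA amount; per plate, G2 fraction set to 0% for non-targeting and 100% for GMNN siRNA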
- Direction: G2 robust z-score and G2 cells, % of GMNN control: higher = more G2 cells, more excess DNA replication; raw share of cells in G2: higher = larger share of cells with G2 DNA content
- Active means: 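Active siRNAs have a G2 robust z of 5 or more median absolute deviations over the median, which in these data means about 38% or higher of GMNN control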
The whole screen tested about 59,000 reagents; below is a random part of them. Of all reagents, about 1,550 (2.6%) got an active call. 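G2 share is only a proxy for re-replication; each gene was hit by three separate siRNAs, and active genes were retested.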 Raw values are not corrected between plates. Reagents against one gene are numbered here. Reagent sequences are not shown. Not given: the amount of reagent.

Gene | siRNA no. | G2 robust z-score | G2 cells, % of GMNN control | raw share of cells in G2 (%) | Call
DYNC2H1 (dynein cytoplasmic 2 heavy chain 1) | 1 | -0.33 | 0.642 | 5.7 | inactive
DYNC2H1 (dynein cytoplasmic 2 heavy chain 1) | 2 | -0.0452 | 2.65 | 5.15 | inactive
DYNC2H1 (dynein cytoplasmic 2 heavy chain 1) | 3 | -0.0592 | 2.55 | 5.73 | inactive
HOOK3 (hook microtubule tethering protein 3) | 1 | -0.435 | -0.0921 | 2.38 | inactive
HOOK3 (hook microtubule tethering protein 3) | 2 | -0.268 | 1.08 | 4.47 | inactive
HOOK3 (hook microtubule tethering protein 3) | 3 | -0.459 | -0.259 | 3.38 | inactive
F11 (coagulation factor XI) | 1 | 3.02 | 24.2 | 14 | inactive
F11 (coagulation factor XI) | 2 | 0.452 | 6.15 | 7.08 | inactive
F11 (coagulation factor XI) | 3 | -0.131 | 2.04 | 4.67 | inactive
LECT2 (leukocyte cell derived chemotaxin 2) | 1 | 1.71 | 15 | 11.2 | inactive
LECT2 (leukocyte cell derived chemotaxin 2) | 2 | 0.935 | 9.55 | 6.34 | inactive
LECT2 (leukocyte cell derived chemotaxin 2) | 3 | -0.406 | 0.111 | 5.51 | inactive
MCL1 (MCL1 apoptosis regulator, BCL2 family member) | 1 | -0.252 | 1.19 | 5.94 | inactive
MCL1 (MCL1 apoptosis regulator, BCL2 family member) | 2 | -0.425 | -0.0194 | 5.35 | inactive
MCL1 (MCL1 apoptosis regulator, BCL2 family member) | 3 | -0.923 | -3.53 | 2.03 | inactive
SLC6A15 | 1 | 2.46 | 20.3 | 12.8 | inactive
SLC6A15 | 2 | -0.79 | -2.59 | 5.29 | inactive
SLC6A15 | 3 | -0.87 | -3.15 | 3.31 | inactive
VMO1 (vitelline membrane outer layer 1 homolog) | 1 | -0.407 | 0.105 | 3.08 | inactive
VMO1 (vitelline membrane outer layer 1 homolog) | 2 | -0.904 | -3.39 | 2.24 | inactive
VMO1 (vitelline membrane outer layer 1 homolog) | 3 | -0.414 | 0.0557 | 3.66 | inactive
NECTIN2 (nectin cell adhesion molecule 2) | 1 | 2.36 | 19.6 | 11.7 | inactive
NECTIN2 (nectin cell adhesion molecule 2) | 2 | -0.84 | -2.94 | 3.56 | inactive
NECTIN2 (nectin cell adhesion molecule 2) | 3 | -0.779 | -2.51 | 3.31 | inactive
OR10K1 (olfactory receptor family 10 subfamily K member 1) | 1 | 0.451 | 6.14 | 7.34 | inactive
OR10K1 (olfactory receptor family 10 subfamily K member 1) | 2 | -0.798 | -2.65 | 2.85 | inactive
OR10K1 (olfactory receptor family 10 subfamily K member 1) | 3 | 0.108 | 3.73 | 5 | inactive
GAK (cyclin G associated kinase) | 1 | -0.979 | -3.92 | 4.31 | inactive
GAK (cyclin G associated kinase) | 2 | -0.578 | -1.1 | 5.04 | inactive
GAK (cyclin G associated kinase) | 3 | -0.594 | -1.21 | 3.6 | inactive

Not a retest: entries from further up.
Gene | siRNA no. | G2 robust z-score | G2 cells, % of GMNN control | raw share of cells in G2 (%) | Call
SLC6A15 | 1 | 2.46 | 20.3 | 12.8 | inactive
SLC6A15 | 2 | -0.79 | -2.59 | 5.29 | inactive
SLC6A15 | 3 | -0.87 | -3.15 | 3.31 | inactive
VMO1 (vitelline membrane outer layer 1 homolog) | 1 | -0.407 | 0.105 | 3.08 | inactive
VMO1 (vitelline membrane outer layer 1 homolog) | 2 | -0.904 | -3.39 | 2.24 | inactive
VMO1 (vitelline membrane outer layer 1 homolog) | 3 | -0.414 | 0.0557 | 3.66 | inactive
NECTIN2 (nectin cell adhesion molecule 2) | 1 | 2.36 | 19.6 | 11.7 | inactive
NECTIN2 (nectin cell adhesion molecule 2) | 2 | -0.84 | -2.94 | 3.56 | inactive
NECTIN2 (nectin cell adhesion molecule 2) | 3 | -0.779 | -2.51 | 3.31 | inactive
OR10K1 (olfactory receptor family 10 subfamily K member 1) | 1 | 0.451 | 6.14 | 7.34 | inactive

The list goes on.
Gene | siRNA no. | G2 robust z-score | G2 cells, % of GMNN control | raw share of cells in G2 (%) | Call
RPL3L (ribosomal protein L3 like) | 1 | 0.0935 | 3.63 | 6.51 | inactive
RPL3L (ribosomal protein L3 like) | 2 | 2.64 | 21.5 | 12.7 | inactive
RPL3L (ribosomal protein L3 like) | 3 | 0.609 | 7.25 | 5.97 | inactive
PROS1 (protein S) | 1 | 1.03 | 10.2 | 7.55 | inactive
PROS1 (protein S) | 2 | -0.618 | -1.38 | 4.5 | inactive
PROS1 (protein S) | 3 | -0.688 | -1.87 | 3.97 | inactive
ZC3H3 (zinc finger CCCH-type containing 3) | 1 | 9.22 | 67.9 | 27.1 | active
ZC3H3 (zinc finger CCCH-type containing 3) | 2 | 0.852 | 8.96 | 9.96 | inactive
ZC3H3 (zinc finger CCCH-type containing 3) | 3 | -0.626 | -1.43 | 3.68 | inactive
LRRC43 (leucine rich repeat containing 43) | 1 | -0.435 | -0.0923 | 3.54 | inactive
LRRC43 (leucine rich repeat containing 43) | 2 | -0.141 | 1.98 | 3.81 | inactive
LRRC43 (leucine rich repeat containing 43) | 3 | 3.09 | 24.7 | 11.1 | inactive
C19orf73 (chromosome 19 open reading frame 73) | 1 | -1.32 | -6.31 | 1.12 | inactive
C19orf73 (chromosome 19 open reading frame 73) | 2 | -1.05 | -4.43 | 2.82 | inactive
C19orf73 (chromosome 19 open reading frame 73) | 3 | 0.495 | 6.45 | 6.81 | inactive
PLGRKT (plasminogen receptor with a C-terminal lysine) | 1 | -0.708 | -2.01 | 2.5 | inactive
PLGRKT (plasminogen receptor with a C-terminal lysine) | 2 | -0.707 | -2 | 3.75 | inactive
PLGRKT (plasminogen receptor with a C-terminal lysine) | 3 | 1.14 | 11 | 8.68 | inactive
TMOD3 (tropomodulin 3) | 1 | 0.806 | 8.64 | 7.15 | inactive
TMOD3 (tropomodulin 3) | 2 | 4.23 | 32.7 | 16.9 | inactive
TMOD3 (tropomodulin 3) | 3 | -0.165 | 1.8 | 3.82 | inactive
ZFR2 (zinc finger RNA binding protein 2) | 1 | 0.216 | 4.48 | 6.74 | inactive
ZFR2 (zinc finger RNA binding protein 2) | 2 | -0.542 | -0.843 | 3.79 | inactive
ZFR2 (zinc finger RNA binding protein 2) | 3 | -0.499 | -0.547 | 2.97 | inactive
BSDC1 (BSD domain containing 1) | 1 | 0.272 | 4.88 | 6.4 | inactive
BSDC1 (BSD domain containing 1) | 2 | -0.847 | -2.99 | 2.9 | inactive
BSDC1 (BSD domain containing 1) | 3 | -0.539 | -0.823 | 2.87 | inactive
MYO9B (myosin IXB) | 1 | 0.00197 | 2.98 | 6.65 | inactive
MYO9B (myosin IXB) | 2 | -0.547 | -0.878 | 5.02 | inactive
MYO9B (myosin IXB) | 3 | 0.0187 | 3.1 | 4.22 | inactive
GAL3ST2 (galactose-3-O-sulfotransferase 2) | 1 | 0.578 | 7.04 | 8.56 | inactive
GAL3ST2 (galactose-3-O-sulfotransferase 2) | 2 | 1.55 | 13.9 | 9.27 | inactive
GAL3ST2 (galactose-3-O-sulfotransferase 2) | 3 | -0.726 | -2.14 | 3.45 | inactive
ECRG4 (ECRG4 augurin precursor) | 1 | 3.54 | 27.9 | 13.4 | inactive
ECRG4 (ECRG4 augurin precursor) | 2 | 0.15 | 4.03 | 4.65 | inactive
ECRG4 (ECRG4 augurin precursor) | 3 | -1.03 | -4.27 | 1.11 | inactive
ERICH6B (glutamate rich 6B) | 1 | 0.364 | 5.53 | 5.58 | inactive
ERICH6B (glutamate rich 6B) | 2 | -0.181 | 1.7 | 3.71 | inactive
ERICH6B (glutamate rich 6B) | 3 | 1.74 | 15.2 | 8.05 | inactive
